Measured data: PubChem BioAssay AID504791 (Drosophila RNAi Screening Center, 2011)
The screen tested about 23,000 reagents; shown is a random part of those with a known target gene and a result. Over the whole deposit, 199 (0.86%) got an active call. 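Plate-scaled ratios behind the calls are not deposited; printed light signals are raw; many rows marked increased or decreased are still called inactive.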 Entries without a mark were called inactive. Reagents against one gene are numbered here. A plus sign joins genes that one reagent is predicted to hit.

- Aim: 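Genes of the fly required for silencing by miRNA, siRNA or endo-siRNA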 (primary screen)
- Cells: Drosophila S2-derived reporter cells
- Knock-down reagent: long dsRNA against Drosophila genes, about 150-250 ng dsRNA per well (siRNA assay); about 80-120 ng (miRNA assay)
- Duration: about 5 days (siRNA assay); about 4 days (miRNA assay)
- Challenge: copper sulfate induction of reporters: 25 µM (siRNA assay); 200 mM stated (miRNA assay), 1-2 days before reading
- Detection: 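Per-well ratio of Renilla over firefly light, expressed relative to that plate's average ratio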
- Direction: siRNA reporter hit score: higher = 3 marks a strong hit with raised ratio; -3 a strong hit with lowered ratio
- Hit rule: 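a well was a first-pass pick when its plate-scaled ratio rose above 1.5 (siRNA assay) or 1.6 (miRNA assay), or dropped below 0.6; a gene counted only if two separate dsRNAs agreed on retest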

gene,dsRNA no.,siRNA reporter hit score,stable siRNA reporter change,miRNA reporter change,"stable assay Renilla, run 1 (luminescence)","stable assay firefly, run 1 (luminescence)"
CG15916,1,,,,5411,3.62e5
Csp (Cysteine string protein),1,,,,8826,3.54e5
Dgkepsilon (Diacyl glycerol kinase epsilon),1,,,,7746,3.93e5
Pi3K59F (Phosphatidylinositol 3-kinase 59F),1,,,,2.84e5,1.29e6
CG15019,1,,reporter ratio lowered past the hit cutoff,,5600,6.18e5
CG42319,1,,,,5763,3.10e5
CG42319,2,,,,5943,3.11e5
CG42319,3,,,,3975,3.66e5
Wdr33 (WD repeat domain 33),1,,,,13213,5.68e5
Cpr76Bd (Cuticular protein 76Bd),1,,,,5979,3.49e5
CG4066,1,,,,6551,4.24e5
CG14220,1,,,,6803,4.09e5
Cpr78Ca (Cuticular protein 78Ca),1,,,,6952,4.04e5
Ndc80,1,,,,7795,5.82e5
Ndc80,2,,,,10169,6.02e5
CG8837,1,,,,7824,3.81e5
Lsp1gamma (Larval serum protein 1 gamma),1,,,,11298,4.37e5
CG1143,1,,,,5348,3.41e5
CARPA (Carbonic anhydrase-related protein A),1,,,,5898,3.23e5
CARPA (Carbonic anhydrase-related protein A),2,,,,9341,5.63e5
CG3213,1,,,,4619,5.51e5
Lmpt (Limpet),1,,reporter ratio raised past the hit cutoff,,6587,2.80e5
Lmpt (Limpet),2,,,,6234,3.29e5
Lmpt (Limpet),3,,,,7295,2.81e5
Lmpt (Limpet),4,,,,6668,3.38e5
Lmpt (Limpet),5,,,,6970,3.48e5
Lmpt (Limpet),6,,,,8821,4.47e5
Lmpt (Limpet),7,,,,5088,5.88e5
CG5532,1,,,,5171,6.11e5
CG15650,1,,,,6635,3.16e5
brun (brunelleschi),1,,,reporter ratio lowered past the hit cutoff,20830,1.79e6
FoxK (Forkhead box K),1,,,,6623,4.23e5
FoxK (Forkhead box K),2,,,reporter ratio lowered past the hit cutoff,,
CG11999,1,,,,7306,4.04e5
Chi (Chip),1,,,,7354,1.57e6
Epp (Ecdysteroid phosphate phosphatase),1,,,,9361,4.57e5
CG10051,1,,,,6879,4.07e5
CG31109,1,,,,7378,3.49e5
Uhg3 (U snoRNA host gene 3),1,,,,4504,5.39e5
Dab (Disabled),1,3,,,5523,5.20e5
CG3397,1,,,,8747,4.71e5
Obp46a (Odorant-binding protein 46a),1,,,,7103,4.25e5
Cbp80 (cap binding protein 80),1,-3 (active),reporter ratio raised past the hit cutoff,reporter ratio raised past the hit cutoff,31008,4.91e5
CR31846 (retired record),1,,,,9747,6.58e5
Pkn + Tsen15,1,,,,5199,5.51e5
CG31544 (retired record),1,,,,6088,4.48e5
CR30068 (retired record),1,,,,6507,4.53e5
hmw (hemingway),1,,,,9501,3.30e5
Tina-1 (Troponin C-akin-1),1,,,,79628,8.44e5
Sgt1 (suppressor-of-G2-allele-of-skp1),1,,,,8499,4.48e5
hyx (hyrax),1,,,,6559,3.21e5
orion,1,,,,5279,3.02e5
orion,2,,,,5495,3.02e5
RpL40 (Ribosomal protein L40),1,,,,7374,4.59e5
Gpat4 (Glycerol-3-phosphate acyltransferase 4),1,,,,30338,1.21e6
ninaE (neither inactivation nor afterpotential E),1,,,,6871,3.40e5
CG12362,1,,,,6847,5.50e5
CG5167,1,,,,6334,3.36e5
Tsen34 (tRNA splicing endonuclease subunit 34),1,,,,4463,4.68e5
CG13358,1,,,,6511,4.06e5
CG17707,1,,,,5822,3.64e5
JMJD4 (Jumonji domain containing 4),1,,,,6128,1.21e6
Fs (Follistatin),1,,,,10865,4.35e5
Fs (Follistatin),2,,,,5839,2.34e5
CG2961,1,,,,5655,4.01e5
CG7886,1,,,,7427,3.76e5
hppy (happyhour),1,,,,4499,3.29e5
hppy (happyhour),2,,,,5972,3.43e5
hppy (happyhour),3,,,,5936,3.51e5
Arfip (Arfaptin),1,,,,8098,5.69e5
CG33098,1,,,,3619,3.24e5
CG2256,1,,,,5323,3.01e5
ClC-c (Chloride channel-c),1,,,,7510,2.90e5
l(2)k09848 (lethal (2) k09848),1,,,,8807,1.63e6
CG18324,1,,,,8966,4.30e5
bard,1,,,,6866,2.85e5
Rpn7 (Regulatory particle non-ATPase 7),1,,reporter ratio raised past the hit cutoff (active),,7732,2.00e5
"AP-1sigma (Adaptor Protein complex 1, sigma subunit)",1,,,,8787,4.70e5
Rgk1 (retired record),1,,,,5928,3.69e5
Rgk1 (retired record),2,,,,5134,2.02e5
hiw (highwire),1,,,,4479,3.14e5
hiw (highwire),2,,,,3864,2.61e5
Mnat9 (microtubule-associated Nat9),1,,,,5527,3.82e5
CG14455,1,,,,6146,4.33e5
Glt (Glutactin),1,,,reporter ratio lowered past the hit cutoff,6918,7.29e5
Sgs5 (Salivary gland secretion 5),1,,,,7214,4.43e5
dao (down and out),1,,,,7283,3.99e5
CG9822,1,,,,7176,4.28e5
spen (split ends),1,,,reporter ratio lowered past the hit cutoff (active),11915,1.12e6
CG34050 (retired record),1,,,,3384,1.74e5
CG4511,1,,,,6495,3.81e5
CG32413,1,,,,8637,5.39e5
Slc45-1,1,,,,6528,4.30e5
COX8 (Cytochrome c oxidase subunit 8),1,,,,6031,3.79e5
CCT8 (Chaperonin containing TCP1 subunit 8),1,,,,8770,4.30e5
CG32132 (retired record),1,,,,3839,3.08e5
CG32132 (retired record),2,,,,4947,2.70e5
CG13538,1,,,,6242,3.51e5
CG43693,1,,,,4440,4.11e5
CG43693,2,,,,7506,5.10e5
Rh4 + sina,1,,,,7807,3.05e5
Imp (IGF-II mRNA-binding protein),1,,,,5059,4.03e5
Imp (IGF-II mRNA-binding protein),2,,,,6635,3.63e5
CG4036,1,,,,6086,3.97e5
CG15445,1,,,,9975,4.56e5
CG16704,1,,,,6884,3.31e5

Targets listed so far whose gene name begins with P or p:
gene,dsRNA no.,siRNA reporter hit score,stable siRNA reporter change,miRNA reporter change,"stable assay Renilla, run 1 (luminescence)","stable assay firefly, run 1 (luminescence)"
Pi3K59F (Phosphatidylinositol 3-kinase 59F),1,,,,2.84e5,1.29e6
Pkn + Tsen15,1,,,,5199,5.51e5
